This passage reports binding results from article PMC7919097.

By UniProt entry, the sequences of proteins in these tests, tags left out.
UniProt P62316: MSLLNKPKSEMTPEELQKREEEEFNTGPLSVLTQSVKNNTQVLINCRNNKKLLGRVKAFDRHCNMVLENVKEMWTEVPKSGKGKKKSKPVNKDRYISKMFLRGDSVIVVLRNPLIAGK
UniProt P62318: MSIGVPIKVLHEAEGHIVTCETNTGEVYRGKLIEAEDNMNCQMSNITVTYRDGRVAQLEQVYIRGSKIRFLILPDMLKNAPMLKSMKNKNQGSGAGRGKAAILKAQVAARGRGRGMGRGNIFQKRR
UniProt O75533: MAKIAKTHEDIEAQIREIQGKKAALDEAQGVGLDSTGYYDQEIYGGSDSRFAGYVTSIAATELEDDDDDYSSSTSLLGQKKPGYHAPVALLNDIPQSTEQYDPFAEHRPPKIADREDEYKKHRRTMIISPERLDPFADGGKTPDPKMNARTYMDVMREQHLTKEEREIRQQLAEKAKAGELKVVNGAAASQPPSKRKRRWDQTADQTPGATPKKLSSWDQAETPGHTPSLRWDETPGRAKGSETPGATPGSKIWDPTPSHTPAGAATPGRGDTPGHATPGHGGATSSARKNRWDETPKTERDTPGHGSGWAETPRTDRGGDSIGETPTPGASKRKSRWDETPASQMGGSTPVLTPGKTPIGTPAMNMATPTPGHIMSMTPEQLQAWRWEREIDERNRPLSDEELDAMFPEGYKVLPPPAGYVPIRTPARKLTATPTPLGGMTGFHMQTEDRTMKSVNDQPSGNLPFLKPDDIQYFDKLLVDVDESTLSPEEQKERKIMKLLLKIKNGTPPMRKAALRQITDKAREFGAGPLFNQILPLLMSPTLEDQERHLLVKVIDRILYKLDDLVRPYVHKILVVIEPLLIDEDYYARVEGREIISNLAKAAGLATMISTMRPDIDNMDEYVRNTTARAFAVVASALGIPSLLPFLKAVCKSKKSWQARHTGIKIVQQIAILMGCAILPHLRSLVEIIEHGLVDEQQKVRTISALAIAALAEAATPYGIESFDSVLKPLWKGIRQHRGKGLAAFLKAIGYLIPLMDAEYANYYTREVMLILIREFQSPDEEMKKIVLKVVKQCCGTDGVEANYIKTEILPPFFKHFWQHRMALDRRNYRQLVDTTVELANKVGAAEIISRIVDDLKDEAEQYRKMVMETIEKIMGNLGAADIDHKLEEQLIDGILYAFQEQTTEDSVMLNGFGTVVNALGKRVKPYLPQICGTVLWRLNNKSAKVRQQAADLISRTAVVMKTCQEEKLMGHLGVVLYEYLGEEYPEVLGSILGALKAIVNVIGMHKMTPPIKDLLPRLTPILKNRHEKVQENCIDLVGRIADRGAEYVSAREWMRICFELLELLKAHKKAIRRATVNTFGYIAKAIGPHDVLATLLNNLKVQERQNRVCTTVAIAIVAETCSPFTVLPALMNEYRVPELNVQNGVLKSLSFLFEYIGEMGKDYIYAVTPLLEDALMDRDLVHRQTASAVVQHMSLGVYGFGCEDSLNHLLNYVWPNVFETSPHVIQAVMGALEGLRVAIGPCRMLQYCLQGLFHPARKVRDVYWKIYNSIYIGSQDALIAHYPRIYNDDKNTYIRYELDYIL

The target in experiment [1] is GFP-tagged SNRPD2 (Hs578T BAC GFP-reporter) (human) (UniProt P62316). As to the kind of experiment: affinity purification with mass spectrometry; GFP-Trap A beads on lysates of Hs578T BAC GFP-reporter lines (EBC buffer, 150 mM NaCl, 0.5% NP-40, sonicated, benzonase 1 h 4 °C); on-bead trypsin digestion, mass spectrometry.
In experiment [2] the target is GFP-tagged SNRPD3 (Hs578T BAC GFP-reporter) (human) (UniProt P62318). The experiment is described as above.

These are yes or no findings as the source states them, for the method shown. In cells and extracts the contact can be indirect. These calls come from enrichment with a bait or labelling near it, and not all partners need be listed.

“SNRPD3 (endogenous) (from UniProt P62318 1-126)”: in experiment [1], the binding entry was “binds”.

As to SF3B1 (from UniProt O75533 1-1304), the binding entry in experiment [2] and in experiment [1] was “binds” each time.

B1: CRNKL1 (protein, UniProt Q9BZJ0 1-848)
chain: MTATVENLTFQKDTLGNAVDKNTSRLELRSYSLAGRHGSTEPLVLAWSSQFRRLTWGCALDALHRSPCVAASQHGVTHLIRSSRTPHSTRCRKEDAQPGHHGNGAASVTAQARGQRSVLQVPLPVPRSCLFSESFVVSVSSQSRFLASVPGTGVQRSTAADMAASTAAGKQRIPKVAKVKNKAPAEVQITAEQLLREAKERELELLPPPPQQKITDEEELNDYKLRKRKTFEDNIRKNRTVISNWIKYAQWEESLKEIQRARSIYERALDVDYRNITLWLKYAEMEMKNRQVNHARNIWDRAITTLPRVNQFWYKYTYMEEMLGNVAGARQVFERWMEWQPEEQAWHSYINFELRYKEVDRARTIYERFVLVHPDVKNWIKYARFEEKHAYFAHARKVYERAVEFFGDEHMDEHLYVAFAKFEENQKEFERVRVIYKYALDRISKQDAQELFKNYTIFEKKFGDRRGIEDIIVSKRRFQYEEEVKANPHNYDAWFDYLRLVESDAEAEAVREVYERAIANVPPIQEKRHWKRYIYLWINYALYEELEAKDPERTRQVYQASLELIPHKKFTFAKMWILYAQFEIRQKNLSLARRALGTSIGKCPKNKLFKVYIELELQLREFDRCRKLYEKFLEFGPENCTSWIKFAELETILGDIDRARAIYELAISQPRLDMPEVLWKSYIDFEIEQEETERTRNLYRRLLQRTQHVKVWISFAQFELSSGKEGSLTKCRQIYEEANKTMRNCEEKEERLMLLESWRSFEEEFGTASDKERVDKLMPEKVKKRRKVQTDDGSDAGWEEYFDYIFPEDAANQPNLKLLAMAKLWKKQQQEKEDAEHHPDEDVDESES
Consider B1, for which the binding result in experiment [2] and in experiment [1] was “binds” throughout.

B2: CACTIN (protein, UniProt Q8WUQ7 1-758)
chain: MGRDTRSRSRSAGRRGRRRQSQSGSRSRSRSHGRRNRRRREDEGRRRRRRRSRERRSDSEEERWQRSGMRSRSPPRPKWHSRDGSSQSDSGEEQSRGQWARRRRRARSWSPSSSASSSASPGRSQSPRAAAAALSQQQSLQERLRLREERKQQEELMKAFETPEEKRARRLAKKEAKERKKREKMGWGEEYMGYTNTDNPFGDNNLLGTFIWNKALEKKGISHLEEKELKERNKRIQEDNRLELQKVKQLRLEREREKAMREQELEMLQREKEAEHFKTWEEQEDNFHLQQAKLRSKIRIRDGRAKPIDLLAKYISAEDDDLAVEMHEPYTFLNGLTVADMEDLLEDIQVYMELEQGKNADFWRDMTTITEDEISKLRKLEASGKGPGERREGVNASVSSDVQSVFKGKTYNQLQVIFQGIEGKIRAGGPNLDMGYWESLLQQLRAHMARARLRERHQDVLRQKLYKLKQEQGVESEPLFPILKQEPQSPSRSLEPEDAAPTPPGPSSEGGPAEAEVDGATPTEGDGDGDGEGEGEGEAVLMEEDLIQQSLDDYDAGRYSPRLLTAHELPLDAHVLEPDEDLQRLQLSRQQLQVTGDASESAEDIFFRRAKEGMGQDEAQFSVEMPLTGKAYLWADKYRPRKPRFFNRVHTGFEWNKYNQTHYDFDNPPPKIVQGYKFNIFYPDLIDKRSTPEYFLEACADNKDFAILRFHAGPPYEDIAFKIVNREWEYSHRHGFRCQFANGIFQLWFHFKRYRYRR
For the molecule B2, the binding result in experiment [2] and in experiment [1] was “binds” in each case.

B3: AQR (protein, UniProt O60306 1-1485)
chain: MAAPAQPKKIVAPTVSQINAEFVTQLACKYWAPHIKKKSPFDIKVIEDIYEKEIVKSRFAIRKIMLLEFSQYLENYLWMNYSPEVSSKAYLMSICCMVNEKFRENVPAWEIFKKKPDHFPFFFKHILKAALAETDGEFSLHEQTVLLLFLDHCFNSLEVDLIRSQVQQLISLPMWMGLQLARLELELKKTPKLRKFWNLIKKNDEKMDPEAREQAYQERRFLSQLIQKFISVLKSVPLSEPVTMDKVHYCERFIELMIDLEALLPTRRWFNTILDDSHLLVHCYLSNLVRREEDGHLFSQLLDMLKFYTGFEINDQTGNALTENEMTTIHYDRITSLQRAAFAHFPELYDFALSNVAEVDTRESLVKFFGPLSSNTLHQVASYLCLLPTLPKNEDTTFDKEFLLELLVSRHERRISQIQQLNQMPLYPTEKIIWDENIVPTEYYSGEGCLALPKLNLQFLTLHDYLLRNFNLFRLESTYEIRQDIEDSVSRMKPWQSEYGGVVFGGWARMAQPIVAFTVVEVAKPNIGENWPTRVRADVTINLNVRDHIKDEWEGLRKHDVCFLITVRPTKPYGTKFDRRRPFIEQVGLVYVRGCEIQGMLDDKGRVIEDGPEPRPNLRGESRTFRVFLDPNQYQQDMTNTIQNGAEDVYETFNIIMRRKPKENNFKAVLETIRNLMNTDCVVPDWLHDIILGYGDPSSAHYSKMPNQIATLDFNDTFLSIEHLKASFPGHNVKVTVEDPALQIPPFRITFPVRSGKGKKRKDADVEDEDTEEAKTLIVEPHVIPNRGPYPYNQPKRNTIQFTHTQIEAIRAGMQPGLTMVVGPPGTGKTDVAVQIISNIYHNFPEQRTLIVTHSNQALNQLFEKIMALDIDERHLLRLGHGEEELETEKDFSRYGRVNYVLARRIELLEEVKRLQKSLGVPGDASYTCETAGYFFLYQVMSRWEEYISKVKNKGSTLPDVTEVSTFFPFHEYFANAPQPIFKGRSYEEDMEIAEGCFRHIKKIFTQLEEFRASELLRSGLDRSKYLLVKEAKIIAMTCTHAALKRHDLVKLGFKYDNILMEEAAQILEIETFIPLLLQNPQDGFSRLKRWIMIGDHHQLPPVIKNMAFQKYSNMEQSLFTRFVRVGVPTVDLDAQGRARASLCNLYNWRYKNLGNLPHVQLLPEFSTANAGLLYDFQLINVEDFQGVGESEPNPYFYQNLGEAEYVVALFMYMCLLGYPADKISILTTYNGQKHLIRDIINRRCGNNPLIGRPNKVTTVDRFQGQQNDYILLSLVRTRAVGHLRDVRRLVVAMSRARLGLYIFARVSLFQNCFELTPAFSQLTARPLHLHIIPTEPFPTTRKNGERPSHEVQIIKNMPQMANFVYNMYMHLIQTTHHYHQTLLQLPPAMVEEGEEVQNQETELETEEEAMTVQADIIPSPTDTSCRQETPAFQTDTTPSETGATSTPEAIPALSETTPTVVGAVSAPAEANTPQDATSAPEETK
Turning to B3, the binding entry in experiment [2] and in experiment [1] was “binds” in each case.

B4: SNW1/SKIIP (protein, UniProt Q13573 1-536)
chain: MALTSFLPAPTQLSQDQLEAEEKARSQRSRQTSLVSSRREPPPYGYRKGWIPRLLEDFGDGGAFPEIHVAQYPLDMGRKKKMSNALAIQVDSEGKIKYDAIARQGQSKDKVIYSKYTDLVPKEVMNADDPDLQRPDEEAIKEITEKTRVALEKSVSQKVAAAMPVRAADKLAPAQYIRYTPSQQGVAFNSGAKQRVIRMVEMQKDPMEPPRFKINKKIPRGPPSPPAPVMHSPSRKMTVKEQQEWKIPPCISNWKNAKGYTIPLDKRLAADGRGLQTVHINENFAKLAEALYIADRKAREAVEMRAQVERKMAQKEKEKHEEKLREMAQKARERRAGIKTHVEKEDGEARERDEIRHDRRKERQHDRNLSRAAPDKRSKLQRNENRDISEVIALGVPNPRTSNEVQYDQRLFNQSKGMDSGFAGGEDEIYNVYDQAWRGGKDMAQSIYRPSKNLDKDMYGDDLEARIKTNRFVPDKEFSGSDRRQRGREGPVQFEEDPFGLDKFLEEAKQHGGSKRPSDSSRPKEHEHEGKKRRKE
As for B4, the binding entry in experiment [2] and in experiment [1] was “binds” throughout.

B5: BUD31 (protein, UniProt P41223 1-144)
chain: MPKVKRSRKAPPDGWELIEPTLDELDQKMREAETEPHEGKRKVESLWPIFRIHHQKTRYIFDLFYKRKAISRELYEYCIKEGYADKNLIAKWKKQGYENLCCLRCIQTRDTNFGTNCICRVPKSKLEVGRIIECTHCGCRGCSG
As to B5, the binding entry in experiment [2] and in experiment [1] was “binds” each time.
